# Source: article doi:10.1101/2020.07.02.184937
# Protein sequences, listed by entry. Tags and fused reporters are not part of them. Lines headed by an entry give the natural chain unless they say otherwise; changes in a name come on top.
# UniProt Q8RY59: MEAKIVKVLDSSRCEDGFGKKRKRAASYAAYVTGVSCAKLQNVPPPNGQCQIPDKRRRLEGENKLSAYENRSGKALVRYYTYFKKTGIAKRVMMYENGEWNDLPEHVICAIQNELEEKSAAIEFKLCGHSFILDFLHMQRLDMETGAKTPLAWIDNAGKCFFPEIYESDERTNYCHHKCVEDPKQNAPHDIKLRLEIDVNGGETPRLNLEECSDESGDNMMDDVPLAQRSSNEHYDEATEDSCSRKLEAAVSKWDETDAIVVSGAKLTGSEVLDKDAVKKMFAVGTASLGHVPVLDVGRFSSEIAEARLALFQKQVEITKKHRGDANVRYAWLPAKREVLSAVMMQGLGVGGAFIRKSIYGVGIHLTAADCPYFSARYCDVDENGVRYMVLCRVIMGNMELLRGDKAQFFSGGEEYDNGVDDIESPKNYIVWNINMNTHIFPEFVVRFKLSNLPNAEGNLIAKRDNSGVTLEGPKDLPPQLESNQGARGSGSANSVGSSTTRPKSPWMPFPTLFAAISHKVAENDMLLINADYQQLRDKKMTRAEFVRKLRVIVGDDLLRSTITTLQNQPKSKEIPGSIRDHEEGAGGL
# UniProt Q9SQR8: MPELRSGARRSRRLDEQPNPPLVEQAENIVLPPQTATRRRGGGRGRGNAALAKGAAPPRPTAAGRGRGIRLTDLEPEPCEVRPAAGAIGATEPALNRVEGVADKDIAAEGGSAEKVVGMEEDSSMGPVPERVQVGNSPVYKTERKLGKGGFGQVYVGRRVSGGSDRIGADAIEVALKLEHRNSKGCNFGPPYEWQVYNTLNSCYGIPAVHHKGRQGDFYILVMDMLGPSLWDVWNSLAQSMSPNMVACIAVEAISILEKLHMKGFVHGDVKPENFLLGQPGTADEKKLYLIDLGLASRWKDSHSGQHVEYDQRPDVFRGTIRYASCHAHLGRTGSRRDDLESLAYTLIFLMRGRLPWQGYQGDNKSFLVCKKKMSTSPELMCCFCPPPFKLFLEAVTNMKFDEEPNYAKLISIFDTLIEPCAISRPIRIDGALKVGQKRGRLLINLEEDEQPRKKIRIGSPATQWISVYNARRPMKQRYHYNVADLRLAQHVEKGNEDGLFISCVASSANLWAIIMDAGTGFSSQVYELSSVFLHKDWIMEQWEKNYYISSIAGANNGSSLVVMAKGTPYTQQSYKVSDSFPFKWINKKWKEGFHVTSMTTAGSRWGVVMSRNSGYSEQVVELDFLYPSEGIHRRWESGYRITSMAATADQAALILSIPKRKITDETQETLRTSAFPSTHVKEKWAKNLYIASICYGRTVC
# These are yes or no findings as the source states them, for the method shown. In cells and extracts the contact can be indirect. A result given as binding can be weak or reduced; the word gives no strength.
# Target: RADICAL-INDUCED CELL DEATH1 (RCD1) fused to GFP (Arabidopsis thaliana) (UniProt Q8RY59)
# Assay: co-IP
substance,measurement,value
"Photoregulatory Protein Kinase 3 (PPK3), 3xHA-tagged (from UniProt Q9SQR8) (enzyme)",binding,binds
